Like-named read-outs stand apart in the source and are kept apart here. Results are given in words; binding and its absence hold for the method and conditions named. Binding seen in cells or lysates may run through a third protein. A yes stands for co-enrichment or nearness to the bait. Other partners may have been found. For some of these results: A no says only that the protein was not detected with the bait. Sequences can lack the tags named with a protein. One block for each molecule: values may come before it.
What was measured:
[1] = target: T1, GFP-tagged RRP41 (Arabidopsis thaliana) (UniProt Q9SP08); experiment: affinity purification with mass spectrometry; RRP41-myc or RRP41-GFP extracted from flowers of stable Arabidopsis transformants, held on magnetic microparticles coated with monoclonal myc or GFP antibodies (MACS, Miltenyi), SDS omitted from washing buffers; nano LC-MS/MS; three biological repeats crossed, proteins of mock IPs excluded
T1 sequence: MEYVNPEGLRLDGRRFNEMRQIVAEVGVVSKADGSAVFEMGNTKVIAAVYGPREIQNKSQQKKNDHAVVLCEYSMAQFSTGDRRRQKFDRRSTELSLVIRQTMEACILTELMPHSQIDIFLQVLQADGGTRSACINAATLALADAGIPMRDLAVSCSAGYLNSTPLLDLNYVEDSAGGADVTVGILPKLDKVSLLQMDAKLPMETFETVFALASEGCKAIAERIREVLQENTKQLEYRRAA

Chains of the proteins cited; added tags and fusions are not shown.
UniProt Q7XZF5: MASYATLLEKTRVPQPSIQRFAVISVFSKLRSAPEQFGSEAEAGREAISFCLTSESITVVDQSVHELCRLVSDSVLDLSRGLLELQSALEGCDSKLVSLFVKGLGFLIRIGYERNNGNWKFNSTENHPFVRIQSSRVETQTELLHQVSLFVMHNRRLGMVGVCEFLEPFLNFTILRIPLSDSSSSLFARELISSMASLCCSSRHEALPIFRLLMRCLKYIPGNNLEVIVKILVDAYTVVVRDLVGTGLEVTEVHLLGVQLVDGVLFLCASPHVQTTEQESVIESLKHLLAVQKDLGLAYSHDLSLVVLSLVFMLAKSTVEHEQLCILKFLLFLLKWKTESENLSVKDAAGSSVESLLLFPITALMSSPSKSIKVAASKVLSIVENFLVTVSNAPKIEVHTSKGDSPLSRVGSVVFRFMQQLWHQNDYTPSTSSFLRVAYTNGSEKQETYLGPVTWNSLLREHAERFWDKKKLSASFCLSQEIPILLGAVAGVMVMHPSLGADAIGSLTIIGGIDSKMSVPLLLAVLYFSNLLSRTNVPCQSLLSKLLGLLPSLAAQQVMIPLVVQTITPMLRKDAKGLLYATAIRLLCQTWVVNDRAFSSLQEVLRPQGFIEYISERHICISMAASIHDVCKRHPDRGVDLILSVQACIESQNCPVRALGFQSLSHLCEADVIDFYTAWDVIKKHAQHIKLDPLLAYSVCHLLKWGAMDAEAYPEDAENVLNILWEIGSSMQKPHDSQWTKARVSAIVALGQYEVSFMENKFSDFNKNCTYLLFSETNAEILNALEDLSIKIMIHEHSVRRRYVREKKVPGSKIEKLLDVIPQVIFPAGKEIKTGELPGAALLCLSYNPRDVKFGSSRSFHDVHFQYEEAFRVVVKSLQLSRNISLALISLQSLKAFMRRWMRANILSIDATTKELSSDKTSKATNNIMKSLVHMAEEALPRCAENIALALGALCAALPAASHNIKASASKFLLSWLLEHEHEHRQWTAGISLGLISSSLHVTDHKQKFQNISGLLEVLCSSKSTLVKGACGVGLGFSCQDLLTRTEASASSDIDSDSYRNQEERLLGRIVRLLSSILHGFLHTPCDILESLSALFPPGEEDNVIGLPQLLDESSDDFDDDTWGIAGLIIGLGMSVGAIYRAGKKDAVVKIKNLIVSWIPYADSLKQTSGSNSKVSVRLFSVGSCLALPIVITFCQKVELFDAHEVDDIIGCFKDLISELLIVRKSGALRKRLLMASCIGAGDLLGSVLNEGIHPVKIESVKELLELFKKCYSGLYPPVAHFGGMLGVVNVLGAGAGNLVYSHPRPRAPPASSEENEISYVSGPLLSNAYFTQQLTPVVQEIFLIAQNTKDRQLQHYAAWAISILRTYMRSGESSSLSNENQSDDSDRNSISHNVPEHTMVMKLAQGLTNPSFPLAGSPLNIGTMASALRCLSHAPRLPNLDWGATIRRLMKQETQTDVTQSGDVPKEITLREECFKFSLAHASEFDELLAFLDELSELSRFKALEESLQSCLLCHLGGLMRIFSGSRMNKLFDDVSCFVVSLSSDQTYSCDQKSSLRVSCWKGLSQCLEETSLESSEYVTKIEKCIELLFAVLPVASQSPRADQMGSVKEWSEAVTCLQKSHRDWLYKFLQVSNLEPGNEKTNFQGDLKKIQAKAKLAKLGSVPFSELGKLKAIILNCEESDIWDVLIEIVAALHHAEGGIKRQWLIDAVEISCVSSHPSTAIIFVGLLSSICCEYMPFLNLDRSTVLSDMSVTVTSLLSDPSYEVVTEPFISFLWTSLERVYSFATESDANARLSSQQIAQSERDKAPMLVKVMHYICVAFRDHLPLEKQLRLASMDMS

[2] = target: T2, myc-tagged RRP41 (Arabidopsis thaliana) (UniProt Q9SP08); experiment: as above
T2 sequence: T1 sequence

[3] = target: T3, HEN2-GFP (Arabidopsis thaliana) (UniProt Q9ZVW2); experiment: affinity purification with mass spectrometry; HEN2-GFP (hen2 background) extracted from flowers, held on anti-GFP magnetic microparticles (MACS), 50 mM NaCl; LC-MS/MS; duplicates crossed, proteins of mock IPs excluded
T3 sequence: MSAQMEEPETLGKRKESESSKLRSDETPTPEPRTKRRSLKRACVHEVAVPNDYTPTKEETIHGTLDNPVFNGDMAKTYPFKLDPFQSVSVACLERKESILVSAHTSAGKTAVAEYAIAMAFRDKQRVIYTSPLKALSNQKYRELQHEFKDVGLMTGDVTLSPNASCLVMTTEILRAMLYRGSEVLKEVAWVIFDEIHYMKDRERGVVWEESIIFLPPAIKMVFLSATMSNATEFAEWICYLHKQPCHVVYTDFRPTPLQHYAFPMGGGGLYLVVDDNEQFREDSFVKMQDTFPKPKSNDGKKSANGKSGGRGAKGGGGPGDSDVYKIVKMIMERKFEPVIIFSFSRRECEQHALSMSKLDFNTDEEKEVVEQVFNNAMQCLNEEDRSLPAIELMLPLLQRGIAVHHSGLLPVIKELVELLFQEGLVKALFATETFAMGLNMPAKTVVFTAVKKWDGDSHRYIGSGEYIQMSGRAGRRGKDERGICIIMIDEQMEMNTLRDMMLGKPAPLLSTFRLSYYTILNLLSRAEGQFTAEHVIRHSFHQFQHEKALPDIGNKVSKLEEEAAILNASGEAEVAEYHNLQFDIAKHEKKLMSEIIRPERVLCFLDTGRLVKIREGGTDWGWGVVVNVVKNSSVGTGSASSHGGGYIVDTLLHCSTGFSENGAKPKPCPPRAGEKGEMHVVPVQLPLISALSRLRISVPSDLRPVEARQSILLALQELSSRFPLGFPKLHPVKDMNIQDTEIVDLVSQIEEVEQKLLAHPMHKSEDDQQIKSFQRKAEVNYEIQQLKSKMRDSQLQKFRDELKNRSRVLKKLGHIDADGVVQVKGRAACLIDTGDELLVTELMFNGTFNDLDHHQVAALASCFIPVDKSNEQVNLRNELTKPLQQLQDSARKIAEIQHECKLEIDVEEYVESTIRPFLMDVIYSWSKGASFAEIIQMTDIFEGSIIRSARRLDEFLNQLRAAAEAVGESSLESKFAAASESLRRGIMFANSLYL

[4] = target: T3, HEN2-GFP (Arabidopsis thaliana); experiment: affinity purification with mass spectrometry; HEN2-GFP (hen2 background) extracted from flowers, held on anti-GFP magnetic microparticles (MACS), 150 mM NaCl; LC-MS/MS; duplicates crossed, proteins of mock IPs excluded
[5] = target: T4, AtMTR4-GFP (Arabidopsis thaliana) (UniProt Q9XIF2); experiment: affinity purification with mass spectrometry; AtMTR4-GFP (own promoter, mtr4 background) extracted from flowers, held on anti-GFP magnetic microparticles (MACS), SDS omitted from washing buffers; LC-MS/MS; triplicates crossed, proteins of mock IPs excluded
T4 sequence: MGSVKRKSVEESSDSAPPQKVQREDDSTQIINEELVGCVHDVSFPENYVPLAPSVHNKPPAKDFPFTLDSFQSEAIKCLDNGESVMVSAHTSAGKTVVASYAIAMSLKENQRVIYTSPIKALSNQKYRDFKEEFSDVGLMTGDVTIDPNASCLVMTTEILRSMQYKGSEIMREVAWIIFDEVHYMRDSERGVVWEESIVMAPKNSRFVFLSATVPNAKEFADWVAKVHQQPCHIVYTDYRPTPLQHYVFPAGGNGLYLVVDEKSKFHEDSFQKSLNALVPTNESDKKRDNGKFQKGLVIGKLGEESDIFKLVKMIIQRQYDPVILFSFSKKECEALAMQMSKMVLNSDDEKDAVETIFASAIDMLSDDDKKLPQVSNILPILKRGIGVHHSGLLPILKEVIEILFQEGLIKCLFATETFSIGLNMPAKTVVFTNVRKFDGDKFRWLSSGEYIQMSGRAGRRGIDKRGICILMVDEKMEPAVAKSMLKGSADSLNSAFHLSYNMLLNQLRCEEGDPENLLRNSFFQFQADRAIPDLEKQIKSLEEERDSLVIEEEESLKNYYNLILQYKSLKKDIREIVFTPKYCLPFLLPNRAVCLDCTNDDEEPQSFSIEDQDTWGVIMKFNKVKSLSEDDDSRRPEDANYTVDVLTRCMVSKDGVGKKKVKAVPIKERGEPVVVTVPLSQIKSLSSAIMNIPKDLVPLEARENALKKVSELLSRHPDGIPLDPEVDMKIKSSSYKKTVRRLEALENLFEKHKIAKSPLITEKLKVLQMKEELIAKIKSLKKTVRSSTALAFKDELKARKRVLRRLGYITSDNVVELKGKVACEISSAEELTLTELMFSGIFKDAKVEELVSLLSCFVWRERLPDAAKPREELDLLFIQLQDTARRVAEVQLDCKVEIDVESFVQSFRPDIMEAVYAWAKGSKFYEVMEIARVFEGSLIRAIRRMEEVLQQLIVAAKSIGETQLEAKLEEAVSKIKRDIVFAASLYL

[6] = target: T1, GFP-tagged RRP41 (Arabidopsis thaliana); experiment: affinity purification with mass spectrometry; RRP41-myc or RRP41-GFP extracted from flowers of stable Arabidopsis transformants, held on magnetic microparticles coated with monoclonal myc or GFP antibodies (MACS, Miltenyi), SDS omitted from washing buffers; nano LC-MS/MS; three biological repeats crossed, proteins of mock IPs excluded; remark: listed apart in the source
[7] = target: T2, myc-tagged RRP41 (Arabidopsis thaliana); experiment: as above; remark: listed apart in the source

- binding [1]: binds
- binding [2]: binds
Molecule: RESURRECTION 1 (from UniProt Q7XZF5 1-1841)

- binding [3]: binds
- binding [4]: no binding (only 150 mM NaCl)
- binding [5]: binds
- binding [6]: binds
- binding [7]: binds
B1: RRP45B/CER7 (protein, UniProt Q9M209 1-438)
chain: MEGRLANMWRLTVNESKFVETALQSELRVDGRGLYDYRKLTIKFGKEYGSSEVQLGQTHVMGFVTAQLVQPYKDRPNEGSLSIFTEFSPMADPSFEPGRPGESAVELGRIIDRGLRESRAVDTESLCVLAGKMVWSVRIDLHILDNGGNLVDAANIAALAALMTFRRPDCTVGGENGQEVIIHPLEEREPLPLIIHHLPIAFTFGFFNKGNIVVMDPTYVEEAVMCGRMTVTVNANGDICAIQKPGEEGVNQSVILHCLRLASSRAAATTKIIREEVEAYNCERSLQKVKRHPTLAKSEVSGPTVAVKEEHRKSSDQERAAEISREHVERLKLSTEEVRSSKEEEAANFKGGPSNWDPYSEAMDVDSLKVSLASRGDPVTKSSSTKKMNGSGNAQKVGVEISVEEVTGELGKKDTKHKDGEMTLKDAVKPKKKRKNKS

From paper PMC4140647
